Test results published in paper PMC4829596 (Frontiers in Microbiology, 2016).

Test system: D. microsporus
Experiment: Production of the isolated compounds in fungal culture, determined by MS with standards
Design: species or system Doratomyces microsporus
[1] = supernatant of VPA + Trp treated D. microsporus
[2] = supernatant of VPA treated (+VPA, 50 μM) D. microsporus
[3] = supernatant of tryptophan treated (+Trp) D. microsporus
[4] = supernatant of untreated D. microsporus

Row | SMILES | x-fold of untreated extract (+Trp) | x-fold of untreated extract (+VPA) | x-fold of untreated extract (VPA + Trp) | Amount [1] [mg/L] | Amount [2] [mg/L] | Amount [3] [mg/L] | Amount [4] [mg/L]
1 | O=C(O)Cc1ccccc1 [PAA, phenylacetic acid] | 2.38 | 7.5 | 4.875 | 0.39 | 0.60 | 0.16 | 0.08
2 | O=C1NC(Cc2ccccc2)C(=O)N2CCCC12 [cFP, cyclo-(L-phenylalanine-L-proline)] | 0.875 | 5 | 1.375 | 0.0011 | 0.0040 | 0.0007 | 0.0008
